# Results published in patent US5668133A, “Ophthalmic compositions comprising emedastine and methods for their use” (priority 1995, dated 1997).
# Tested on: histamine-induced vascular permeability in guinea pig conjunctiva
# Test: histamine-induced vascular permeability in guinea pig conjunctiva, topical ocular pretreatment
# Type: in vivo, guinea pig (Male Dunkin Hartley)
# Conditions: 30 min pretreatment; relative to emedastine difumarate = 1.0; (95% Confidence limits)
# Procedure: The topical ocular antihistaminic effect of emedastine difumarate was assessed in a model of histamine induced vascular permeability in guinea pig conjunctiva. The potency of emedastine difumarate in this model was then compared with those of reference antihistamines.
# Male Dunkin Hartley Viral Antibody Free outbred guinea pigs (Charles River Labs, Portage, Mich.), weighing approximately 250-350 grams (6/group) were injected intravenously (i.v.) via the marginal ear vein with 1.0 mL of Evans Blue dye (1.0 mg/mL). Forty-five (45) minutes post dye injection, 20 μL of test compound or saline vehicle was applied topically to one eye of each experimental animal. […] Responses were quantitated as described by Yanni et al. in Int. Arch. Allergy Immunol., 101:102-106 (1993). Response scores from the treated groups were then compared with scores obtained in the saline-treated group using Dunnett's t test (Dunnett C. W., "A multiple comparison procedure for comparing treatments with a control." J. Am. Stat. Assoc. 50:1096-1121(1955)). Regression analysis was used to determine relative potency (Bliss, C. and E. Gjorgy. In Vitamin Methods, Vol. 2, pp. 445-610, Academic Press, Inc., New York, 1951.).
smiles,measurement,value
"CN1CCC[C@@H]1CCO[C@](C)(c1ccccc1)c1ccc(Cl)cc1 [Clemastine, reference compound]",Potency,0.105 (0.063-0.176)
